Data as given in PubChem BioAssay AID1259308 (NCATS, 2017).

- Test: 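Genes whose loss raises luciferase production in HEK293 cells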 (primary screen)
- System: human HEK293 embryonic kidney cells stably expressing firefly luciferase (HEK-CMV-Luc2-Hygro)
- Knock-down reagent: single siRNA against human genes, 0.8 pmol siRNA per well
- Time to read-out: 72 h
- Measurement: 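Reporter luminescence and viable-cell signal on separate replicate plates, given as percent of non-targeting control and median/MAD z-scores, plus per-cell luciferase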
- Direction: total luciferase, z-score and total luciferase, % of control: higher = more reporter protein produced; luciferase per cell, z-score: higher = more reporter output per viable cell; viable cells, % of control: higher = more viable cells
- Call rule: 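Active when the median/MAD z-score for overall luciferase is greater than 3; a gene was taken forward for validation with new siRNAs if at least two of its three siRNAs passed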
- Meaning of the calls: active = raised luciferase; inactive = no rise
Shown is an unselected part of about 59,000 reagents tested. About 1,510 of them (2.6%) were called active. 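Calls use total luciferase alone and ignore viability, so some active siRNAs may act by altering cell number.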 The numbers tell different reagents against one gene apart.

gene | reagent | total luciferase, z-score | total luciferase, % of control | luciferase per cell, z-score | viable cells, % of control | activity call
LINC02903 | 1 | 2 | 122 | 1.55 | 90.3 | inactive
LINC02903 | 2 | -0.196 | 78 | -0.418 | 97.3 | inactive
LINC02903 | 3 | -2.11 | 39.9 | -1.61 | 68.1 | inactive
OTUD3 | 1 | -0.0227 | 81.4 | 0.839 | 73 | inactive
OTUD3 | 2 | 0.116 | 84.2 | -0.376 | 104 | inactive
OTUD3 | 3 | -1.09 | 60.3 | -1.19 | 92.1 | inactive
UPF3A | 1 | -0.695 | 68.1 | -1.28 | 107 | inactive
UPF3A | 2 | 1.12 | 104 | 0.644 | 98.2 | inactive
UPF3A | 3 | 1.62 | 114 | 0.954 | 99.1 | inactive
ZNF675 | 1 | 2.03 | 122 | 1.85 | 84.1 | inactive
ZNF675 | 2 | -1.48 | 52.4 | -1.54 | 87.8 | inactive
ZNF675 | 3 | -0.451 | 72.9 | 0.19 | 77.5 | inactive
KYNU | 1 | -0.55 | 71 | -0.908 | 101 | inactive
KYNU | 2 | 0.328 | 88.4 | -0.33 | 108 | inactive
KYNU | 3 | 0.889 | 99.6 | -0.125 | 115 | inactive
CES5A | 1 | 0.749 | 96.8 | 0.235 | 102 | inactive
CES5A | 2 | 6.06 | 202 | 3.95 | 79.9 | active
CES5A | 3 | 0.832 | 98.4 | 0.28 | 102 | inactive
FGF2 | 1 | 1.93 | 120 | 0.845 | 108 | inactive
FGF2 | 2 | 0.144 | 84.8 | -0.218 | 100 | inactive
FGF2 | 3 | 1.5 | 112 | 0.872 | 99.2 | inactive
LSM5 | 1 | 0.557 | 93 | 0.755 | 85.2 | inactive
LSM5 | 2 | 1.36 | 109 | 1.39 | 84.3 | inactive
LSM5 | 3 | -0.802 | 65.9 | -0.666 | 87.8 | inactive

Laid out differently: results already given
gene	reagent	total luciferase, z-score	total luciferase, % of control	luciferase per cell, z-score	viable cells, % of control	activity call
FGF2	3	1.5	112	0.872	99.2	inactive
LSM5	1	0.557	93	0.755	85.2	inactive
LSM5	2	1.36	109	1.39	84.3	inactive
LSM5	3	-0.802	65.9	-0.666	87.8	inactive
